In article PMC7336374 one finds binding data, which are given here for 4 molecules.

Results are given in words; binding and its absence hold for the method and conditions named. For some assays here: In cells and extracts the contact can be indirect. Some entries that bind do so weakly or less than the wild type. Tags and fused reporters may be left off the sequences shown.

Assay [1] concerns the target T1, LAX1, yeast two-hybrid fusion (rice (Oryza sativa L.)) (UniProt Q7XAQ6).
T1 sequence: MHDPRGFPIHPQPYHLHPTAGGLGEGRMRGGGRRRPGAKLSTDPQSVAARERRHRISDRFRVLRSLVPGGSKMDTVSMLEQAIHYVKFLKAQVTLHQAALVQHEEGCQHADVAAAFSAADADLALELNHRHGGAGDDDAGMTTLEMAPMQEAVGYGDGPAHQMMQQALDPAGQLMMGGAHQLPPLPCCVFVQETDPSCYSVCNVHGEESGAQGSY
Description: two-hybrid; OsPID in pGADT7, partners in pGBKT7, co-transformed into yeast strain AH109; growth on synthetic dropout medium without Trp, Leu, Ade and His at 28°C.

Assay [2] deals with T2, OsMADS16, yeast two-hybrid fusion (rice (Oryza sativa L.)) (UniProt Q944S9).
T2 sequence: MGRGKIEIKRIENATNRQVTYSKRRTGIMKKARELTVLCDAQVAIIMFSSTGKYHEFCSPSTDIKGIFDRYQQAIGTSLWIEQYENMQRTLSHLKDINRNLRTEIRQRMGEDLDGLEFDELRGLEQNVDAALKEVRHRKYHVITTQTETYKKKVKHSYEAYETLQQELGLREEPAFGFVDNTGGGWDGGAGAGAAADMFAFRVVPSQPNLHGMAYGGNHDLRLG
Described as above.

For assay [3], the target named is T3, OsMADS16, BiFC fusion in SCYCE (rice (Oryza sativa L.)) (UniProt Q944S9).
T3 sequence: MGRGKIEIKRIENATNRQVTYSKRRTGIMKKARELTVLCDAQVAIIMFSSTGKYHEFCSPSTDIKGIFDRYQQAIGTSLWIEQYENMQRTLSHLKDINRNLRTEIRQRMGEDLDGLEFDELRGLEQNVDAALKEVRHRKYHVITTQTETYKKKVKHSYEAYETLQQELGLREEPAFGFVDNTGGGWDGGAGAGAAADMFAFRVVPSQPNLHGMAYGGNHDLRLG
In words: split reporter; BiFC: SCYNE(R)::OsPID with SCYCE fusions, Agrobacterium GV3101 with the p19 strain infiltrated into 4- to 6-week-old tobacco leaves; SCFP signal by confocal microscopy.

Assay [4] deals with T4, GST-tagged OsMADS16 (rice (Oryza sativa L.)) (UniProt Q944S9).
T4 sequence: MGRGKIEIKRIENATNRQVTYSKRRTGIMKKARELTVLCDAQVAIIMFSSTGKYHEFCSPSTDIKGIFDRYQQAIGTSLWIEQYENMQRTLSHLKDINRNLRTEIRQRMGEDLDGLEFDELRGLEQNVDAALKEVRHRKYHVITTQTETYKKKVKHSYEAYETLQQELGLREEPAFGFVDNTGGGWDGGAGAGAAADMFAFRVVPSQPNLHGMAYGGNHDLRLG
In words: pull-down; in vitro pull-down of HIS-tagged OsPID and GST-tagged partners expressed in E. coli BL21; which was held is not told.

The target in assay [5] is T5, GFP-tagged OsMADS16 (rice (Oryza sativa L.)) (UniProt Q944S9).
T5 sequence: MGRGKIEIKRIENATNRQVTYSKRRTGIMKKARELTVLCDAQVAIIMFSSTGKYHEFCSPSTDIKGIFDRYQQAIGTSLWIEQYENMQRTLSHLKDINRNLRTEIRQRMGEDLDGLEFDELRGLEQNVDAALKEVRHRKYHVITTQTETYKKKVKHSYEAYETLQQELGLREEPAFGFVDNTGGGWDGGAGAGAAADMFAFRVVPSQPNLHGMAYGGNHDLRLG
Description: co-IP; FLAG-tagged OsPID and GFP-tagged partners co-transformed into rice protoplasts; which was precipitated is not told.

B1: OsPINOID (OsPID), yeast two-hybrid fusion (protein, UniProt Q2QM77 1-484)
chain: MVAAVRAPVKPEMVELSPAAMERYSSDADTTAPNSSLSSAASSTGSLARCSSLSRLSFDCSPSAAVAAAATSCSPPRASVLLRPHRSGDVAWAAIRAASTTSAAPLGPRDFKLVRRIGGGDIGTVYLCRLRSSPERESPCMYAMKVVDRRAVARKQKLGRAAAEKRILRQLDHPFLPTLFADFDATPHFSCAVMEFCPGGDLHSLRHRMPSRRFPLPSARFYAAEVLLAIEYLHMMGIVYRDLKPENVLIRADGHIMLTDFDLSLQSTTSPSLDGDTDTDDEASGGASCFPDHLLRFKRRRNAVAAPRPRFVAEPVDARSCSFVGTHEYVAPEVASGGAHGAAVDWWAYGVFLYELIYGRTPFAGATNEATLRNIVRRPLAFPSGSGSCGPADADARDLIARLLAKDPAARLGSRRGAADVKSHPFFKSLNLALLRSSRPPVVPGAGAGAAPLHRSQSCKAAPTTPPPPTTTKPANATARFDLF
As to B1, the binding result in assay [1] and in assay [2] was “binds” throughout.

B2: OsPINOID (OsPID), BiFC fusion in SCYNE(R) (protein, UniProt Q2QM77 1-484)
chain: MVAAVRAPVKPEMVELSPAAMERYSSDADTTAPNSSLSSAASSTGSLARCSSLSRLSFDCSPSAAVAAAATSCSPPRASVLLRPHRSGDVAWAAIRAASTTSAAPLGPRDFKLVRRIGGGDIGTVYLCRLRSSPERESPCMYAMKVVDRRAVARKQKLGRAAAEKRILRQLDHPFLPTLFADFDATPHFSCAVMEFCPGGDLHSLRHRMPSRRFPLPSARFYAAEVLLAIEYLHMMGIVYRDLKPENVLIRADGHIMLTDFDLSLQSTTSPSLDGDTDTDDEASGGASCFPDHLLRFKRRRNAVAAPRPRFVAEPVDARSCSFVGTHEYVAPEVASGGAHGAAVDWWAYGVFLYELIYGRTPFAGATNEATLRNIVRRPLAFPSGSGSCGPADADARDLIARLLAKDPAARLGSRRGAADVKSHPFFKSLNLALLRSSRPPVVPGAGAGAAPLHRSQSCKAAPTTPPPPTTTKPANATARFDLF
With B2, the binding result in assay [3] was “binds”.

B3: HIS-tagged OsPINOID (OsPID) (protein, UniProt Q2QM77 1-484)
chain: MVAAVRAPVKPEMVELSPAAMERYSSDADTTAPNSSLSSAASSTGSLARCSSLSRLSFDCSPSAAVAAAATSCSPPRASVLLRPHRSGDVAWAAIRAASTTSAAPLGPRDFKLVRRIGGGDIGTVYLCRLRSSPERESPCMYAMKVVDRRAVARKQKLGRAAAEKRILRQLDHPFLPTLFADFDATPHFSCAVMEFCPGGDLHSLRHRMPSRRFPLPSARFYAAEVLLAIEYLHMMGIVYRDLKPENVLIRADGHIMLTDFDLSLQSTTSPSLDGDTDTDDEASGGASCFPDHLLRFKRRRNAVAAPRPRFVAEPVDARSCSFVGTHEYVAPEVASGGAHGAAVDWWAYGVFLYELIYGRTPFAGATNEATLRNIVRRPLAFPSGSGSCGPADADARDLIARLLAKDPAARLGSRRGAADVKSHPFFKSLNLALLRSSRPPVVPGAGAGAAPLHRSQSCKAAPTTPPPPTTTKPANATARFDLF
For the molecule B3, the binding result in assay [4] is reported as “binds”.

B4: 3xFLAG-tagged OsPINOID (OsPID) (protein, UniProt Q2QM77 1-484)
chain: MVAAVRAPVKPEMVELSPAAMERYSSDADTTAPNSSLSSAASSTGSLARCSSLSRLSFDCSPSAAVAAAATSCSPPRASVLLRPHRSGDVAWAAIRAASTTSAAPLGPRDFKLVRRIGGGDIGTVYLCRLRSSPERESPCMYAMKVVDRRAVARKQKLGRAAAEKRILRQLDHPFLPTLFADFDATPHFSCAVMEFCPGGDLHSLRHRMPSRRFPLPSARFYAAEVLLAIEYLHMMGIVYRDLKPENVLIRADGHIMLTDFDLSLQSTTSPSLDGDTDTDDEASGGASCFPDHLLRFKRRRNAVAAPRPRFVAEPVDARSCSFVGTHEYVAPEVASGGAHGAAVDWWAYGVFLYELIYGRTPFAGATNEATLRNIVRRPLAFPSGSGSCGPADADARDLIARLLAKDPAARLGSRRGAADVKSHPFFKSLNLALLRSSRPPVVPGAGAGAAPLHRSQSCKAAPTTPPPPTTTKPANATARFDLF
Consider B4, for which the binding entry in assay [5] is recorded as “binds”.
